Mtb growth Cornell: 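Whole-cell assay for inhibitors of Mycobacterium tuberculosis growth, labelled Cornell in the record; the read-out is not stated. The concentration is filed as 10 mM, unlikely as a test dose, so the dose is not known. The record gives no direction; compounds strong in two other growth screens of this library score well above the rest, so higher reads as stronger inhibition. About 53,000 compounds were tested under these conditions; 1.7% (about 900) showed 50% or more at least once.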
Mtb heat-shock: 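Assay on Mycobacterium tuberculosis, filed only as a heat shock assay from Cornell; the read-out is not stated. The concentration is filed as 10 mM, unlikely as a test dose, so the dose is not known. Higher reads as stronger inhibition (inferred: compounds with an IC50 in retests scored well above the rest). Size under these conditions: about 69,000 compounds, about 930 of them at 50% or above in at least one test.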

Values are the deposited “Percent Effect”, in %.
The controls that fix the scale are not given in the record; negative values are as filed.
The compounds are a random part of those screened.

{"smiles": "O=C(c1ccsc1)N1CCC2(CCN2Cc2ccc(F)cc2)C1", "stereo": "stereo not shown", "Mtb growth Cornell": 20.45, "Mtb heat-shock": 10.26}
{"smiles": "O=C1CC2(CCN(C(=O)c3ccccn3)CC2)Oc2c(Cl)cc(Cl)cc21", "Mtb growth Cornell": 6.181, "Mtb heat-shock": 15.89}
{"smiles": "[H][C@@]12CS(=O)(=O)C[C@]1([H])N(Cc1ncc[nH]1)CCN2CC1CC1", "Mtb heat-shock": 0.1334}
{"smiles": "CC(C)[C@H](NC(=O)NC1CCS(=O)(=O)C1)C(=O)NCc1ccccc1", "stereo": "stereo partly shown", "Mtb growth Cornell": 19.38, "Mtb heat-shock": 9.131}
{"smiles": "COCCCC1(CO)CCCN(Cc2ccc(F)c(OC)c2)C1", "stereo": "stereo not shown", "Mtb growth Cornell": 19.88, "Mtb heat-shock": -8.751}
{"smiles": "CN(Cc1nc(-c2ccccc2)c[nH]1)C(=O)NCC(=O)NC(C)(C)C", "Mtb growth Cornell": 0.1187, "Mtb heat-shock": 16.54}
{"smiles": "COc1cc(C2SC(C)=Nc3c2c(=O)[nH]n3C2CCCC2)ccc1O", "stereo": "stereo not shown", "Mtb growth Cornell": 15.83, "Mtb heat-shock": 11.79}
{"smiles": "O=c1c2cn[nH]c2nc(SCCN2CCOCC2)n1-c1ccccc1", "Mtb growth Cornell": 23.86, "Mtb heat-shock": 19.29}
{"smiles": "Cc1nc(C)n(C2CCCN(C(=O)c3sccc3C3CC3)C2)n1", "stereo": "stereo not shown", "Mtb growth Cornell": -39.85, "Mtb heat-shock": -3.824}
{"smiles": "CCSc1cc(C(=O)NCCNC(=O)Cc2ccccc2)ccn1", "Mtb growth Cornell": 24.27, "Mtb heat-shock": -11.77}
{"smiles": "COc1ccc(OC)c([C@@H]2N[C@H](c3nccs3)Cc3ccsc32)c1", "Mtb growth Cornell": 46.52, "Mtb heat-shock": 6.308}
{"smiles": "CN(C(=O)C1CCCCC1)[C@@H]1CCC[C@@H](N2CCOCC2)[C@@H]1O", "Mtb growth Cornell": -4.071, "Mtb heat-shock": -6.532}
{"smiles": "Cc1nnc2n1CCN(C(=O)c1cn(-c3ccccc3Cl)nn1)C2", "Mtb growth Cornell": 37.96, "Mtb heat-shock": -55.66}
{"smiles": "CC(C)(C)NC(=O)COc1ccc(Oc2ccccn2)cc1", "Mtb growth Cornell": 12.4, "Mtb heat-shock": 9.23}
{"smiles": "COc1c(CNCc2nnc3n2CCCCC3)c(C)nn1C.Cl", "Mtb growth Cornell": 31.65, "Mtb heat-shock": -5.931}
{"smiles": "Nc1nccnc1C1CN(C(=O)c2ccc3c(c2)OCO3)CCO1", "stereo": "stereo not shown", "Mtb growth Cornell": -20.94, "Mtb heat-shock": -4.73}
{"smiles": "Cc1cc(NC(=O)CN2CCC(N3CCNC3=O)CC2)on1", "Mtb heat-shock": 12.15}
{"smiles": "O=C(CSc1ccncc1)NC1CC(=O)N(CCc2ccccc2)C1", "stereo": "stereo not shown", "Mtb growth Cornell": 33.6, "Mtb heat-shock": -10.14}
{"smiles": "Cn1cnnc1C1CCCN(Cc2nc(Cc3ccccc3)no2)C1", "stereo": "stereo not shown", "Mtb growth Cornell": -9.557, "Mtb heat-shock": -12.08}
{"smiles": "Cc1cc(CNC(=O)N2CCc3ccccc32)on1", "Mtb growth Cornell": 11.48, "Mtb heat-shock": 19.88}
{"smiles": "Cc1cn([C@H]2CCNC[C@]2(C)O)c(=O)[nH]c1=O", "Mtb growth Cornell": 34.03, "Mtb heat-shock": 0.869}
{"smiles": "COc1cc2nc3n(c(=O)c2cc1OC)CCN(C(=O)C(C)(C)C)CC3", "Mtb heat-shock": -3.771}
{"smiles": "CN1CCN(C2CCN(c3cnc4ccccc4n3)CC2)C1=O", "Mtb heat-shock": 40.2}
{"smiles": "O=C(O)C(F)(F)F.[H][C@@]12COC[C@]1(CNC(=O)C1CCC1)CN(Cc1cccc(C)c1)C2", "Mtb growth Cornell": 0.1331, "Mtb heat-shock": 21.35}
{"smiles": "COc1ccc(CNC(=O)N(C)CC(C)(C)O)cc1OC", "Mtb growth Cornell": 4.086, "Mtb heat-shock": 2.62}
{"smiles": "COc1ccc(C(=O)N2CCCS2(=O)=O)cc1", "Mtb growth Cornell": 2.019, "Mtb heat-shock": -2.713}

3 of the entries, repeated:

With O=C(O)C(F)(F)F.[H][C@@]12COC[C@]1(CNC(=O)C1CCC1)CN(Cc1cccc(C)c1)C2 the screen gave Mtb growth Cornell: 0.1331%; Mtb heat-shock: 21.35%.
With CC(C)[C@H](NC(=O)NC1CCS(=O)(=O)C1)C(=O)NCc1ccccc1 (stereo partly shown) the screen gave Mtb growth Cornell: 19.38%; Mtb heat-shock: 9.131%.
With O=c1c2cn[nH]c2nc(SCCN2CCOCC2)n1-c1ccccc1 the screen gave Mtb growth Cornell: 23.86%; Mtb heat-shock: 19.29%.

Measurements from “University of Dundee, Small-Polar-MMV Screening Library” (2021), ChEMBL document CHEMBL3988442.